From the supplement of paper PMC12819154, “High-throughput peptide-centric local stability assay extends protein–ligand identification to membrane proteins, tissues and bacteria” (Nature Structural & Molecular Biology, 2025)
The list shows a part of the results. Most entries show no effect beyond the scatter of the controls.

Sequences of proteins named here, by UniProt entry; tags and fusion partners are left off. A change or cut given only in a name is not applied to a line headed by its entry.
UniProt Q86VN1: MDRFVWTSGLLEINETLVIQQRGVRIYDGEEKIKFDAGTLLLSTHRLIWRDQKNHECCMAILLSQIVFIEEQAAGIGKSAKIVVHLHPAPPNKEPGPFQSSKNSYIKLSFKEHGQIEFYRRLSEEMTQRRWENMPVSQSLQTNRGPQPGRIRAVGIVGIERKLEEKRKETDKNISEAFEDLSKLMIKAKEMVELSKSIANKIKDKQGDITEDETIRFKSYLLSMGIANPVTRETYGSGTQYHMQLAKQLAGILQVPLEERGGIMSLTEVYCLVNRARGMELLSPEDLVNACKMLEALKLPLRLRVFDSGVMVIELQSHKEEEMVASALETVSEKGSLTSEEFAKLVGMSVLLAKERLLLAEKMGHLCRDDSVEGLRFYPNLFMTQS
UniProt Q6ZWH5: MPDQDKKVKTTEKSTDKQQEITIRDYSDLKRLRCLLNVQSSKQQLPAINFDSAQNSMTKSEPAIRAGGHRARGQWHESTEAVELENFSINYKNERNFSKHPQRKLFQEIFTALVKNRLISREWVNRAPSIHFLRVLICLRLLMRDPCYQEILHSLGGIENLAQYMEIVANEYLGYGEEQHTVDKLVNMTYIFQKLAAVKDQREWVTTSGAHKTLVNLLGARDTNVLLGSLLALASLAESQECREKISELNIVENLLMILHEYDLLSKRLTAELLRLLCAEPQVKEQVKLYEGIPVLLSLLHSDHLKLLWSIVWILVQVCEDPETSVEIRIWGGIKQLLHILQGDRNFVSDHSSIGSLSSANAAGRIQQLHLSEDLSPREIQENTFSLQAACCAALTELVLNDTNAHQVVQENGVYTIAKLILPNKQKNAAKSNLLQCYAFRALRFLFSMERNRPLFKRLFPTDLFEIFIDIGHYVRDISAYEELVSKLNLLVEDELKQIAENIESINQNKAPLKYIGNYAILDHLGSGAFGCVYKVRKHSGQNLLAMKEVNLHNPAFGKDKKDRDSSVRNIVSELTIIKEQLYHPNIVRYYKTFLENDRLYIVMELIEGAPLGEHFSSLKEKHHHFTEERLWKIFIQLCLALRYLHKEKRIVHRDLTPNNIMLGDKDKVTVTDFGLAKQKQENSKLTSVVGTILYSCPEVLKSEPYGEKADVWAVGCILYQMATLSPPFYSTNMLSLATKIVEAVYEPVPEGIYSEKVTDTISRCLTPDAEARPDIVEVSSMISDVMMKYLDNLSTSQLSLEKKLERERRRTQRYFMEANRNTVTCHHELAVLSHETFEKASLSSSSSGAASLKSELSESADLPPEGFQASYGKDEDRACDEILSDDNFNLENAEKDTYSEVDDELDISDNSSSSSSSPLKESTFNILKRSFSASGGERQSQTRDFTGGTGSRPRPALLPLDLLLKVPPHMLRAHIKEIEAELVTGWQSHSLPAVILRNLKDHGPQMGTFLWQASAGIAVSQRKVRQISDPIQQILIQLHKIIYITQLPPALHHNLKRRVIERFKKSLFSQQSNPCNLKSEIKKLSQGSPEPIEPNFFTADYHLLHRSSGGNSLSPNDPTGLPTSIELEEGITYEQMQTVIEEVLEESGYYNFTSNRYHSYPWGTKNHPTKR
UniProt Q7Z4L5: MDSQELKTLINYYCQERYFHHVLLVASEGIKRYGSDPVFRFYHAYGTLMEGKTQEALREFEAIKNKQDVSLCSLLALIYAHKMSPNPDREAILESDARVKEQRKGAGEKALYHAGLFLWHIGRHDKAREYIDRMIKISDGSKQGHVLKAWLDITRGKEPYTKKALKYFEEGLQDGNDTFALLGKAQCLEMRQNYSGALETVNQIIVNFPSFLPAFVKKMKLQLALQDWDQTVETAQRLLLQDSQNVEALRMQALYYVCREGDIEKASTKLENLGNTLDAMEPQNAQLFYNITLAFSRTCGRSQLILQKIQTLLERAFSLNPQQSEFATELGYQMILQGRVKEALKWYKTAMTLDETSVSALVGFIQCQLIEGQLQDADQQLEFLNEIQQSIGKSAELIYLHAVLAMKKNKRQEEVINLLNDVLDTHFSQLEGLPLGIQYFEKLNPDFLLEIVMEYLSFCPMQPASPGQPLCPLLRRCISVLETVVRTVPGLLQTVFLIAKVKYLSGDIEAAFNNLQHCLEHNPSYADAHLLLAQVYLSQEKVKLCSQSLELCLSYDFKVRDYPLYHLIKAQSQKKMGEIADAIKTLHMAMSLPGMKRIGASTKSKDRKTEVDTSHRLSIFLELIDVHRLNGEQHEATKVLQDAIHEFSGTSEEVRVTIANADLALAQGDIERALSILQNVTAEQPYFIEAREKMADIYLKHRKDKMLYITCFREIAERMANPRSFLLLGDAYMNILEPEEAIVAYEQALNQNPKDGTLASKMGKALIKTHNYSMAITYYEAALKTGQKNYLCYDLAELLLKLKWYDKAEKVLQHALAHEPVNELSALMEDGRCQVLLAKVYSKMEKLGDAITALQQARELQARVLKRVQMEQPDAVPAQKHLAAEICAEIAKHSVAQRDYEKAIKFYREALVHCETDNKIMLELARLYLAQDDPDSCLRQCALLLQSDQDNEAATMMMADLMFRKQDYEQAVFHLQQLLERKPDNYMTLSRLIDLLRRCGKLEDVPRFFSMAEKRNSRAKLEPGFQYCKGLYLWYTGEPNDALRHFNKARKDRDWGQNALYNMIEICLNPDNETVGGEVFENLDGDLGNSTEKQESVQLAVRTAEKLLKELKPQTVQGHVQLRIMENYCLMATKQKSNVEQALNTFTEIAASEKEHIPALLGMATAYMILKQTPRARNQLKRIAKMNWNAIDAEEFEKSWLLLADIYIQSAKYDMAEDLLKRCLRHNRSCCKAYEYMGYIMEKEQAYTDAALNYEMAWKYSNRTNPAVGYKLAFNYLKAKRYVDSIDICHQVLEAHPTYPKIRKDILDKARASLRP
UniProt Q71F23: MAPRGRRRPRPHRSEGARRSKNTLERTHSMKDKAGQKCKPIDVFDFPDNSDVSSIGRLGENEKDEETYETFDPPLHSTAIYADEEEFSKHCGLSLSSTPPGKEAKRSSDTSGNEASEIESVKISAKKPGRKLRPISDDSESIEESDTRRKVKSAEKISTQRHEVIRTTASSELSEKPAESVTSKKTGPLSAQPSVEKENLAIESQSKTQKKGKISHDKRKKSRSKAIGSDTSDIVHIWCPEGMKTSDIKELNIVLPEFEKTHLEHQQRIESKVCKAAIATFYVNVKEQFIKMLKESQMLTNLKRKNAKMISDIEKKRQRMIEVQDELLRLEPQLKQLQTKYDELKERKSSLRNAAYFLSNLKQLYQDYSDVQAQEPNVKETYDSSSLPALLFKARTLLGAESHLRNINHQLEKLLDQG
UniProt Q6ZR52: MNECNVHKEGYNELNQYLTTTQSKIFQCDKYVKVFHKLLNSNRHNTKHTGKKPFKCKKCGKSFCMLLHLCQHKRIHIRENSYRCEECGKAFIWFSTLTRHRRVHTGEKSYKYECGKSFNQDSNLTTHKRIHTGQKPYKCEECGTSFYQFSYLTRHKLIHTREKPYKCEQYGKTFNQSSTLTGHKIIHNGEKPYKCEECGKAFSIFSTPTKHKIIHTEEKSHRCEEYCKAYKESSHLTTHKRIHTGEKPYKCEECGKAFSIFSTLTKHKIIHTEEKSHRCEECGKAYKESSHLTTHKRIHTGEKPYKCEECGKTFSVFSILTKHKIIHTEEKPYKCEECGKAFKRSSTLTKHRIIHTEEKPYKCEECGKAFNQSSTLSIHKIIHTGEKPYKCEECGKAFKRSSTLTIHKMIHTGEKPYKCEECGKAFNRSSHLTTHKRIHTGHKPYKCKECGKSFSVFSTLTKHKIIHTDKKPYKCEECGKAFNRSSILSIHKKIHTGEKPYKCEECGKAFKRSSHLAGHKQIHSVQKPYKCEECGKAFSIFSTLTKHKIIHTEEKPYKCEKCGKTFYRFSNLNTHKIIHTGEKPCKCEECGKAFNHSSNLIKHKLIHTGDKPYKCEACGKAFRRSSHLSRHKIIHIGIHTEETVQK
UniProt Q6ZTQ4: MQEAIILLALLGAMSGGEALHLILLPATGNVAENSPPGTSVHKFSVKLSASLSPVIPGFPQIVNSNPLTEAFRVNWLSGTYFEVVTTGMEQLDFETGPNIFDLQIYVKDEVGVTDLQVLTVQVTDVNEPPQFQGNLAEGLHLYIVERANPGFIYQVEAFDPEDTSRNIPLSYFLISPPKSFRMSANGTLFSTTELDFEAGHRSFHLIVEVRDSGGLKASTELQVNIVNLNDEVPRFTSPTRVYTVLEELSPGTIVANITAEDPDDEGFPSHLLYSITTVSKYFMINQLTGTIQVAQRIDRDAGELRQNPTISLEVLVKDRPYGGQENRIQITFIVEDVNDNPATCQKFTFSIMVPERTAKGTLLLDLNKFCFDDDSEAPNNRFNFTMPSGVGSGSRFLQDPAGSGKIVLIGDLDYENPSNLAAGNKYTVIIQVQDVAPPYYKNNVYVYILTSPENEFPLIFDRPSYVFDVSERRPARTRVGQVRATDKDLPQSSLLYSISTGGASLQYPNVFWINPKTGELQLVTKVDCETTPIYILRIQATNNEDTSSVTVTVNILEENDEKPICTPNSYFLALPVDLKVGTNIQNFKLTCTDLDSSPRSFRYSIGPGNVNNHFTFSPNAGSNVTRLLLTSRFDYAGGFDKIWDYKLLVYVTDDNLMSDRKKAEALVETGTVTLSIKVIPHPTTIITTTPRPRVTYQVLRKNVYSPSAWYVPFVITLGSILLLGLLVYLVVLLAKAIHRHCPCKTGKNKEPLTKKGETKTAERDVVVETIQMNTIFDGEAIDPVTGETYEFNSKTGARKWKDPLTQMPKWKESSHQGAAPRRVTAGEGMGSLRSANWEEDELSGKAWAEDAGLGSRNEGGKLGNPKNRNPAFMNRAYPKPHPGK
UniProt Q6ZVK8: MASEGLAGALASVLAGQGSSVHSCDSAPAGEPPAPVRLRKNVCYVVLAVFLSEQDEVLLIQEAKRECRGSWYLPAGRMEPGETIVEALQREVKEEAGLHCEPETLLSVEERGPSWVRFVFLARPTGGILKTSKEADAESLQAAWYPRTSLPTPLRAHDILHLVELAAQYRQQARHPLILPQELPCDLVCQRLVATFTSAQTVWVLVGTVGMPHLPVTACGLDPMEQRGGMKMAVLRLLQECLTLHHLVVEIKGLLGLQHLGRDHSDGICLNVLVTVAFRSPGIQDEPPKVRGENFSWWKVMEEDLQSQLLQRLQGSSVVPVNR
UniProt Q7Z2E3: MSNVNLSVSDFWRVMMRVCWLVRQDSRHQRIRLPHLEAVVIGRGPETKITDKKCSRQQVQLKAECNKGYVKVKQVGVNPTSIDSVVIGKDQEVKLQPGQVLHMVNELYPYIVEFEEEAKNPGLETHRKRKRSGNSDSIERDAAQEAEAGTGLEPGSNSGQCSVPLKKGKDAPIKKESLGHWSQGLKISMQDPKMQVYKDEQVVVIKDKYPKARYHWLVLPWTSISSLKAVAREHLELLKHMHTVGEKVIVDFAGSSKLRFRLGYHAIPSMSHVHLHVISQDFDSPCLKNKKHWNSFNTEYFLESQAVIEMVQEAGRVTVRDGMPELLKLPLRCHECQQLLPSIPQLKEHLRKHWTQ
UniProt Q6ZSS7: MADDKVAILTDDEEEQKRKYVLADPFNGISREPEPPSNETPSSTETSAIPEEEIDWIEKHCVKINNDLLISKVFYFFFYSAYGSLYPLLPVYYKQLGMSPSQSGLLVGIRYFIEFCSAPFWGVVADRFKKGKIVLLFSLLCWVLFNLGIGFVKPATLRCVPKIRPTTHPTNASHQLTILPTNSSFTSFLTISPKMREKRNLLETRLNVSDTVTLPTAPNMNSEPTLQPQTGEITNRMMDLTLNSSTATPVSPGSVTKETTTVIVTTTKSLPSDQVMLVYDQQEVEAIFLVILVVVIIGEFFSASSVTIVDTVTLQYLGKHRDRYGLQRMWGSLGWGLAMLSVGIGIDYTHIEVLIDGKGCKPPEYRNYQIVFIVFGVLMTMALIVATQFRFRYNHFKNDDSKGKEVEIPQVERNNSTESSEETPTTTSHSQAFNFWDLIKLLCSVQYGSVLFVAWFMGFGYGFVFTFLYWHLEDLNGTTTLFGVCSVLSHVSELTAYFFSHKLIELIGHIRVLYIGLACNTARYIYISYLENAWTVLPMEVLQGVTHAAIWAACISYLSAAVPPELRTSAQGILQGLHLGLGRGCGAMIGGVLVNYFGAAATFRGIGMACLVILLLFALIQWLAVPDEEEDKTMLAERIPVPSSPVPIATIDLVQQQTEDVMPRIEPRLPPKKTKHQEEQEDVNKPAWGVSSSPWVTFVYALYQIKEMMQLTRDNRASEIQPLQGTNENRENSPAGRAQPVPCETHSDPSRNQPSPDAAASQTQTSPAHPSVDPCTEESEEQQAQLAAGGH

compound: CN[C@@H]1C[C@H]2O[C@@](C)([C@@H]1OC)n1c3ccccc3c3c4c(c5c6ccccc6n2c5c31)C(=O)NC4 [staurosporine]; experiment: log2 fold change of tryptic peptide abundance, ligand vs vehicle (limited proteolysis) (log2 ratio); higher = more trypsin-susceptible (destabilized); settings: ligand concentration: 20 uM; sample: K562 cleared lysate; digestion: 4 min, 22 C (HT-PELSA RT4min, Orbitrap Astral)

| Target | log2 fold change |
| --- | --- |
| VPS36 (peptide sequence: AVGIVGIER, peptide start residue: 153) (UniProt Q86VN1) | -0.106 |
| NEK10 (peptide sequence: VTVTDFGLAK, peptide start residue: 669) (UniProt Q6ZWH5) | -0.185 |
| TTC21B (peptide sequence: LSIFLELIDVHR, peptide start residue: 617) (UniProt Q7Z4L5) | 0.701 |
| UniProt Q71F23 (peptide sequence: AAIATFYVNVK, peptide start residue: 276) | -0.211 |
| UNC13D (peptide sequence: WFQPAIPSWLQK, peptide start residue: 588) (UniProt Q70J99) | -0.219 |
| UniProt Q6ZR52 (peptide sequence: SSHLTTHKR, peptide start residue: 301) | -0.00984 |
| UniProt Q6ZTQ4 (peptide sequence: NIPLSYFLISPPK, peptide start residue: 167) | 0.16 |
| NUDT18 (peptide sequence: LQGSSVVPVNR, peptide start residue: 313) (UniProt Q6ZVK8) | 0.215 |
| APTX (peptide sequence: IRLPHLEAVVIGR, peptide start residue: 31) (UniProt Q7Z2E3) | 0.31 |
| DHX30 (peptide sequence: VTLHIKWPK, peptide start residue: 87) (UniProt Q7L2E3) | 0.727 |
| MFSD6 (peptide sequence: AQPVPCETHSDPSR, peptide start residue: 738) (UniProt Q6ZSS7) | -0.205 |

Taken from above for reference:

| Target | log2 fold change |
| --- | --- |
| DHX30 (peptide sequence: VTLHIKWPK, peptide start residue: 87) (UniProt Q7L2E3) | 0.727 |
| MFSD6 (peptide sequence: AQPVPCETHSDPSR, peptide start residue: 738) (UniProt Q6ZSS7) | -0.205 |
